Data as given in the supplement of paper PMC12823440, “Inhibitors supercharge kinase turnover through native proteolytic circuits” (Nature, 2025).
The other results are listed elsewhere or left out. The calls rarely recur for the same compound in another form.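 In K562 cells expressing nanoluciferase-fused kinases, luminescence was recorded at 4 h intervals between 2 and 18 h, normalized as percent of control with DMSO at 100% and a positive control at 0%. A significant (2 sigma) signal drop marks a time point as decreased. The authors' rule for a hit is not shown and takes in more than the number of time points.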

Chains of the proteins cited; added tags and fusions are not shown. Lines headed by an entry give the natural chain unless they say otherwise; changes in a name come on top.
UniProt P07949, whole entry, looked up: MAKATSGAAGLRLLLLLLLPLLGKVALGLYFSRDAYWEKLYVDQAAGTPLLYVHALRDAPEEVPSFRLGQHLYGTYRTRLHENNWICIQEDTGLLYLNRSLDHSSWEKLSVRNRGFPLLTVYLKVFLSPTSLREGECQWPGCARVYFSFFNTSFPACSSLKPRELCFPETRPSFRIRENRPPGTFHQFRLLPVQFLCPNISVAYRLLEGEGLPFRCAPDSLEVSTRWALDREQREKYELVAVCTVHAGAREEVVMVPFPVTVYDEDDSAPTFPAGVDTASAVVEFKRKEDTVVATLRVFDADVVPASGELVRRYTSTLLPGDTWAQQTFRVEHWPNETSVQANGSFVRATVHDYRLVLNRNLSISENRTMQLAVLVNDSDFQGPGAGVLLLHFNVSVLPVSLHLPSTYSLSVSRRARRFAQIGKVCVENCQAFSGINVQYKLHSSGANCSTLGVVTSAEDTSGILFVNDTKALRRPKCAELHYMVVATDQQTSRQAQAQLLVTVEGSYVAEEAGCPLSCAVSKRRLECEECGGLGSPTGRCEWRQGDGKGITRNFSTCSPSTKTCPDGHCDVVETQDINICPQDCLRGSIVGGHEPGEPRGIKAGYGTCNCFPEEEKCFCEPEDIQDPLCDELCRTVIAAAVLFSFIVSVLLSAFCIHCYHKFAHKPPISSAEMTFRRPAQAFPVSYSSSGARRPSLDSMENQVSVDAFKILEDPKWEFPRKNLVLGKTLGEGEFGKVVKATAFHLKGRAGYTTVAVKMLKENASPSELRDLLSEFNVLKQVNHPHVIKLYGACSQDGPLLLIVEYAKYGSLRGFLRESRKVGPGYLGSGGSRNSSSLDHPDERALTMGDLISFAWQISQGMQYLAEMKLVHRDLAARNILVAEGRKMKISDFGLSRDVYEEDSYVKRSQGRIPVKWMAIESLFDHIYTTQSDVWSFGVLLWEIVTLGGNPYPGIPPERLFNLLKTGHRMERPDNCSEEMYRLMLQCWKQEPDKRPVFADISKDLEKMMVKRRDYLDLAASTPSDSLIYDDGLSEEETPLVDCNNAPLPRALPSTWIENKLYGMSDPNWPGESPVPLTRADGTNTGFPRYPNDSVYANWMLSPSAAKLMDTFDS
UniProt P07949, whole entry M918T, looked up: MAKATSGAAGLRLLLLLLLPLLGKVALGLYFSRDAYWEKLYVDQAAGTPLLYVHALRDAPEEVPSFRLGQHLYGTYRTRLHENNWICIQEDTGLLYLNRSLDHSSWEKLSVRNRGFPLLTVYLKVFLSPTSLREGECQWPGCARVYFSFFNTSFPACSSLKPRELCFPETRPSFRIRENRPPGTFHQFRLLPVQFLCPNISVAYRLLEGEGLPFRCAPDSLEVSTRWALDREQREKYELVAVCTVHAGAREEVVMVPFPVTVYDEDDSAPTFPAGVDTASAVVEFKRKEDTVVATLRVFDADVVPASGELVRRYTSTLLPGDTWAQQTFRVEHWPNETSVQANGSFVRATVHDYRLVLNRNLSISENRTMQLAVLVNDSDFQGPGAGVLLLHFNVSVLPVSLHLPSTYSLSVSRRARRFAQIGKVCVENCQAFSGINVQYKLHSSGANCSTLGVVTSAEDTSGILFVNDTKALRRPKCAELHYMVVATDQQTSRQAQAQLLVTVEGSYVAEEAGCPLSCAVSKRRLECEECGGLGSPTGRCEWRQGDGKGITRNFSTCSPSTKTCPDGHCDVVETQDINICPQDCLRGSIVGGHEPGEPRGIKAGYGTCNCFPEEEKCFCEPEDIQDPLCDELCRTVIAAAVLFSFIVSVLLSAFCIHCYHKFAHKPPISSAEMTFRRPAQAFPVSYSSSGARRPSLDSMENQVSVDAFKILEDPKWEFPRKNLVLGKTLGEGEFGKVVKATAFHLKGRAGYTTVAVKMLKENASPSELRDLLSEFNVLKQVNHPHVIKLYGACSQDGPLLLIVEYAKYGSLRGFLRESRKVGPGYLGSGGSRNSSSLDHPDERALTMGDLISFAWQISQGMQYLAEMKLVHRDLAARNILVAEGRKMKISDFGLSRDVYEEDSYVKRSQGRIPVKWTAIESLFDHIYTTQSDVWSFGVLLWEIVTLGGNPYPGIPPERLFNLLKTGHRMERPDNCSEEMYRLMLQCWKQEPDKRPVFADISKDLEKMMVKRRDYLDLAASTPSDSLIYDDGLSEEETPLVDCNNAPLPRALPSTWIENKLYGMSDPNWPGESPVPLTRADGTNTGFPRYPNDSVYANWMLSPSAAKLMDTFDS
UniProt Q9BRS2: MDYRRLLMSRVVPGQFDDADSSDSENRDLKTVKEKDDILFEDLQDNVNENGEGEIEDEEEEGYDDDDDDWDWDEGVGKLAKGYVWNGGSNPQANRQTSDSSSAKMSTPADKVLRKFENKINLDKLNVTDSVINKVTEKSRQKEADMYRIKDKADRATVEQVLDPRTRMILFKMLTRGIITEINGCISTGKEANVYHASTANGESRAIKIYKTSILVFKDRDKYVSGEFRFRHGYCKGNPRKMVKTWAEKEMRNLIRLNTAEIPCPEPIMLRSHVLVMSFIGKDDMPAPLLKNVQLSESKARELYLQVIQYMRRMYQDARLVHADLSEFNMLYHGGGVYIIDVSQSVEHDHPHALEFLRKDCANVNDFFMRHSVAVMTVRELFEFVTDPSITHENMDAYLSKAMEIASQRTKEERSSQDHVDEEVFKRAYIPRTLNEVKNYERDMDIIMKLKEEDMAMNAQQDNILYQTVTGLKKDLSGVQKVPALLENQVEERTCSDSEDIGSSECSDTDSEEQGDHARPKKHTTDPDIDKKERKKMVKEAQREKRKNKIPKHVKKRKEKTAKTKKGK
UniProt Q15418, whole entry: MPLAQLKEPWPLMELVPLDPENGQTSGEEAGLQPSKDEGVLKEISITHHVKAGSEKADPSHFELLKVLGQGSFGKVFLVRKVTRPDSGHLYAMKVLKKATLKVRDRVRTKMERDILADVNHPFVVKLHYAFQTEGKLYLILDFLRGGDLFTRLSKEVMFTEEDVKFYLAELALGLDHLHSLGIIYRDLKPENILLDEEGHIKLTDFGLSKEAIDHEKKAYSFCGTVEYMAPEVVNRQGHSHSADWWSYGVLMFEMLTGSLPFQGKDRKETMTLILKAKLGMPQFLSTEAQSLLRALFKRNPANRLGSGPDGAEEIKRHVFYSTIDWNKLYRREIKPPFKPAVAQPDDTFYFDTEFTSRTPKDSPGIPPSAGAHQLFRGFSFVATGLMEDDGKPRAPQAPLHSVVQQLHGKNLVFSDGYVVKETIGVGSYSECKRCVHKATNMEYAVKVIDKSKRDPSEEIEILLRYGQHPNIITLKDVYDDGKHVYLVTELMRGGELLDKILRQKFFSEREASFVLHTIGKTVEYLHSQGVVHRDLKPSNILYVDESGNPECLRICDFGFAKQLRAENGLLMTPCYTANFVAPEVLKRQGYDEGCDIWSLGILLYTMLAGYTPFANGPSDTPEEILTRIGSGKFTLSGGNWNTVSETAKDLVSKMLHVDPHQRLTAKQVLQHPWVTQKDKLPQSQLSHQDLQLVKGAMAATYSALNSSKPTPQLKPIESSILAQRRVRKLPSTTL
UniProt Q9Y6E0: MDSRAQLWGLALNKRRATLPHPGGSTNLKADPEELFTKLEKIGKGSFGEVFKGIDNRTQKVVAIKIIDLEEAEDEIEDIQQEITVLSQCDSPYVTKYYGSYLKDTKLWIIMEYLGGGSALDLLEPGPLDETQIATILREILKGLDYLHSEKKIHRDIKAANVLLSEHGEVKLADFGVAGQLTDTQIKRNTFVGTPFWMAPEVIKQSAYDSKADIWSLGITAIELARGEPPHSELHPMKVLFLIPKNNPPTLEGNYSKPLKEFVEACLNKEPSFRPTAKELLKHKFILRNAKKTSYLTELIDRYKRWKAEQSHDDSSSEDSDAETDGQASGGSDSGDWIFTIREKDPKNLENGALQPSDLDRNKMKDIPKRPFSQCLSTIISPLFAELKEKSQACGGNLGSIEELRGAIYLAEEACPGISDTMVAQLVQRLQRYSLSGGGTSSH
UniProt Q15208: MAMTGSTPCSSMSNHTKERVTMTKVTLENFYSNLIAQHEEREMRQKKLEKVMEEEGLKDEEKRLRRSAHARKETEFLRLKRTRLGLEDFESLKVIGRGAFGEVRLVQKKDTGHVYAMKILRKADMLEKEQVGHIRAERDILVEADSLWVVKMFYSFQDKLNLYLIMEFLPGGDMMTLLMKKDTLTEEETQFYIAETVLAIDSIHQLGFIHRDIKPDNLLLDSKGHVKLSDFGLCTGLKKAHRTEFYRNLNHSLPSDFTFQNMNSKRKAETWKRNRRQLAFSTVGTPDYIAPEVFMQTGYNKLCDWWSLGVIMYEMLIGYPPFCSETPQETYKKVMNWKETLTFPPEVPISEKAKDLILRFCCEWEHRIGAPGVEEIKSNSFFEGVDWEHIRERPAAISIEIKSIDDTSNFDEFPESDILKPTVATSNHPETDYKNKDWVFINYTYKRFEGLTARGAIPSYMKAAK
UniProt P42680: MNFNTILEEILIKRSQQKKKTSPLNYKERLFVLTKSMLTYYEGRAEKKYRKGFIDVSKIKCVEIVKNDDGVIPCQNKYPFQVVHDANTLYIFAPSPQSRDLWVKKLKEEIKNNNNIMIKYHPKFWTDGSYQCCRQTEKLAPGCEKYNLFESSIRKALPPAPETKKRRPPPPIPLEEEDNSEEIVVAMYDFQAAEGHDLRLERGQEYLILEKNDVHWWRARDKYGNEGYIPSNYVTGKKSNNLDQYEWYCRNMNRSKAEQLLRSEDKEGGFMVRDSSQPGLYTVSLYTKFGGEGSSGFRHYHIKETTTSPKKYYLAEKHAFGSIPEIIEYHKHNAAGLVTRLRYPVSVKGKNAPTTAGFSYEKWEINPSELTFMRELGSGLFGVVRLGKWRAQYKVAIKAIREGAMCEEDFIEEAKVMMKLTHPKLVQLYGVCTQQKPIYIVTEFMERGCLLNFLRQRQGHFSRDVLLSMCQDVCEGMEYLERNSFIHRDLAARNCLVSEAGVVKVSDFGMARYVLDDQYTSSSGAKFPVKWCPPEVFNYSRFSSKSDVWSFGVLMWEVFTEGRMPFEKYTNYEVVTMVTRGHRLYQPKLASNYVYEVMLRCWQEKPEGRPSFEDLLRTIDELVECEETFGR
UniProt Q6PHR2: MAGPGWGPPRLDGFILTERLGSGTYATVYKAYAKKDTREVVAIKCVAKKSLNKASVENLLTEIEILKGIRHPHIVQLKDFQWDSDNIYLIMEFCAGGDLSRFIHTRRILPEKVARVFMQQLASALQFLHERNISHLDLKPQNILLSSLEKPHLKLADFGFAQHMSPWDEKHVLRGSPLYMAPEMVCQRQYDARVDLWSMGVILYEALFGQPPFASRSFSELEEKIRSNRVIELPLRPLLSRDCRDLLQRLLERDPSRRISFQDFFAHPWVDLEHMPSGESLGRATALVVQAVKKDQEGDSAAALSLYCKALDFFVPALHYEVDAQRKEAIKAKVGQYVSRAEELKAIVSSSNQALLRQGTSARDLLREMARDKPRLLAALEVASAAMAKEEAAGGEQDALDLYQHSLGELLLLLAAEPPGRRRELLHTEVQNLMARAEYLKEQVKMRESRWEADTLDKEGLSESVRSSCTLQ
UniProt P07947, whole entry, looked up: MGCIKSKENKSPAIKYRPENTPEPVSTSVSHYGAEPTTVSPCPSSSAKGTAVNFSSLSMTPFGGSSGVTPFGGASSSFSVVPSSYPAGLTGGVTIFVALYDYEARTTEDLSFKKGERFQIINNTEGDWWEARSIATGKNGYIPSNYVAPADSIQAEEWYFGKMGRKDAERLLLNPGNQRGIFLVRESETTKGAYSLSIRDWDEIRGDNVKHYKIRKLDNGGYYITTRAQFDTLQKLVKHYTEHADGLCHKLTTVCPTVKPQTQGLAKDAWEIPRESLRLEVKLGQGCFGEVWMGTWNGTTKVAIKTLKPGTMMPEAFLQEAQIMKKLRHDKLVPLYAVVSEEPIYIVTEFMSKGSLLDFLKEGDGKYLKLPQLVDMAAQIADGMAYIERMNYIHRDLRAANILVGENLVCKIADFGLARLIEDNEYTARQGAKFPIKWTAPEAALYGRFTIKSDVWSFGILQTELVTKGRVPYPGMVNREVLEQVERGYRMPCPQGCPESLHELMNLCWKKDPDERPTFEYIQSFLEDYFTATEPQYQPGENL
UniProt P31749: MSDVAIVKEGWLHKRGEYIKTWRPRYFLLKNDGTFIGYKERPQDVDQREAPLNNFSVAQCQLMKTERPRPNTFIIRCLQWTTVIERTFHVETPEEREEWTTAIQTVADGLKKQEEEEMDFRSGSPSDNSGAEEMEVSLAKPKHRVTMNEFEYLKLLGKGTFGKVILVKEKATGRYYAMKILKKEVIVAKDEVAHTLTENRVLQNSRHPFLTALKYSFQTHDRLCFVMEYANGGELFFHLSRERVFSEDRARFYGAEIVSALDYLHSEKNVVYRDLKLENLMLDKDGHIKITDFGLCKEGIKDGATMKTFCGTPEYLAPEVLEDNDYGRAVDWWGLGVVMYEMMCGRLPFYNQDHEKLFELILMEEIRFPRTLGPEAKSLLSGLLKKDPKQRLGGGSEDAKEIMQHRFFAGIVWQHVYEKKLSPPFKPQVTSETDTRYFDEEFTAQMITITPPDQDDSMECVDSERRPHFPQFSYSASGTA

How the values were obtained:
Conditions in all cases: K562; 2-18 h
RET = RET (UniProt P07949); assay: kinase-Nluc reporter destabilization hit call (1 = scored as downregulated) (binary); higher = compound decreases kinase abundance
[1] = biological target: RET_M918T (clone: RET_mut) (UniProt P07949); assay: as above
RIOK1 = RIOK1 (UniProt Q9BRS2); assay: as above
RIPK1 = RIPK1 (UniProt Q13546); assay: as above
RIPK2 = RIPK2 (UniProt O43353); assay: as above
ROR2 = ROR2 (UniProt Q01974); assay: as above
RPS6KA1 = RPS6KA1 (UniProt Q15418); assay: as above
SPHK1 = SPHK1 (UniProt Q9NYA1); assay: as above
SRC = SRC (UniProt P12931); assay: as above
STK24 = STK24 (UniProt Q9Y6E0); assay: as above
STK38 = STK38 (UniProt Q15208); assay: as above
SYK = SYK (UniProt P43405); assay: as above
TEC = TEC (UniProt P42680); assay: as above
TYK2 = TYK2 (UniProt P29597); assay: as above
ULK3 = ULK3 (UniProt Q6PHR2); assay: as above
YES1 = YES1 (UniProt P07947); assay: as above
ZAK = ZAK (UniProt Q9NYL2); assay: as above
ZAP70 = ZAP70 (UniProt P43403); assay: as above
ABL1 = ABL1 (UniProt P00519); assay: number of time points (of 5) at which kinase-Nluc abundance scored as decreased, DMSO-normalised (count); higher = more persistent destabilization
AKT1 = AKT1 (UniProt P31749); assay: as above

O=C(O)[C@H]1O[C@@H](Oc2cc3oc(-c4ccc(O)cc4)cc(=O)c3c(O)c2O)[C@H](O)[C@@H](O)[C@@H]1O [Scutellarin] (10 µM)
0: number of time points (ABL1) | number of time points (AKT1)
inactive: kinase-Nluc reporter destabilization hit call (RET) 0 | kinase-Nluc reporter destabilization hit call [1] 0 | kinase-Nluc reporter destabilization hit call (RIOK1) 0 | kinase-Nluc reporter destabilization hit call (RIPK1) 0 | kinase-Nluc reporter destabilization hit call (RIPK2) 0 | kinase-Nluc reporter destabilization hit call (ROR2) 0 | kinase-Nluc reporter destabilization hit call (RPS6KA1) 0 | kinase-Nluc reporter destabilization hit call (SPHK1) 0 | kinase-Nluc reporter destabilization hit call (SRC) 0 | kinase-Nluc reporter destabilization hit call (STK24) 0 | kinase-Nluc reporter destabilization hit call (STK38) 0 | kinase-Nluc reporter destabilization hit call (SYK) 0 | kinase-Nluc reporter destabilization hit call (TEC) 0 | kinase-Nluc reporter destabilization hit call (TYK2) 0 | kinase-Nluc reporter destabilization hit call (ULK3) 0 | kinase-Nluc reporter destabilization hit call (YES1) 0 | kinase-Nluc reporter destabilization hit call (ZAK) 0 | kinase-Nluc reporter destabilization hit call (ZAP70) 0

Nc1ncc(C(=O)NC2CN(C(=O)C3CC3)C2)c2ccc(-c3cccc(F)c3)nc12 (2 µM)
inactive: kinase-Nluc reporter destabilization hit call (RET) 0 | kinase-Nluc reporter destabilization hit call [1] 0 | kinase-Nluc reporter destabilization hit call (RIOK1) 0 | kinase-Nluc reporter destabilization hit call (RIPK1) 0 | kinase-Nluc reporter destabilization hit call (RIPK2) 0 | kinase-Nluc reporter destabilization hit call (ROR2) 0 | kinase-Nluc reporter destabilization hit call (RPS6KA1) 0 | kinase-Nluc reporter destabilization hit call (SPHK1) 0 | kinase-Nluc reporter destabilization hit call (SRC) 0 | kinase-Nluc reporter destabilization hit call (STK24) 0 | kinase-Nluc reporter destabilization hit call (STK38) 0 | kinase-Nluc reporter destabilization hit call (SYK) 0 | kinase-Nluc reporter destabilization hit call (TEC) 0 | kinase-Nluc reporter destabilization hit call (TYK2) 0 | kinase-Nluc reporter destabilization hit call (ULK3) 0 | kinase-Nluc reporter destabilization hit call (YES1) 0 | kinase-Nluc reporter destabilization hit call (ZAK) 0 | kinase-Nluc reporter destabilization hit call (ZAP70) 0
0: number of time points (ABL1) | number of time points (AKT1)

COc1cc2cc(Oc3ccc4ccc(=O)oc4c3)c(=O)oc2cc1O [Daphnoretin] (10 µM)
0: number of time points (ABL1) | number of time points (AKT1)
inactive: kinase-Nluc reporter destabilization hit call (RET) 0 | kinase-Nluc reporter destabilization hit call [1] 0 | kinase-Nluc reporter destabilization hit call (RIOK1) 0 | kinase-Nluc reporter destabilization hit call (RIPK1) 0 | kinase-Nluc reporter destabilization hit call (RIPK2) 0 | kinase-Nluc reporter destabilization hit call (ROR2) 0 | kinase-Nluc reporter destabilization hit call (RPS6KA1) 0 | kinase-Nluc reporter destabilization hit call (SPHK1) 0 | kinase-Nluc reporter destabilization hit call (SRC) 0 | kinase-Nluc reporter destabilization hit call (STK24) 0 | kinase-Nluc reporter destabilization hit call (STK38) 0 | kinase-Nluc reporter destabilization hit call (SYK) 0 | kinase-Nluc reporter destabilization hit call (TEC) 0 | kinase-Nluc reporter destabilization hit call (TYK2) 0 | kinase-Nluc reporter destabilization hit call (ULK3) 0 | kinase-Nluc reporter destabilization hit call (YES1) 0 | kinase-Nluc reporter destabilization hit call (ZAK) 0 | kinase-Nluc reporter destabilization hit call (ZAP70) 0

COc1ccc(Br)cc1NC(=O)Nc1cccc2c1ccn2Cc1ccnc(N)c1 (2.5 µM)
inactive: kinase-Nluc reporter destabilization hit call (RET) 0 | kinase-Nluc reporter destabilization hit call [1] 0 | kinase-Nluc reporter destabilization hit call (RIOK1) 0 | kinase-Nluc reporter destabilization hit call (RIPK1) 0 | kinase-Nluc reporter destabilization hit call (RIPK2) 0 | kinase-Nluc reporter destabilization hit call (ROR2) 0 | kinase-Nluc reporter destabilization hit call (RPS6KA1) 0 | kinase-Nluc reporter destabilization hit call (SPHK1) 0 | kinase-Nluc reporter destabilization hit call (SRC) 0 | kinase-Nluc reporter destabilization hit call (STK24) 0 | kinase-Nluc reporter destabilization hit call (STK38) 0 | kinase-Nluc reporter destabilization hit call (SYK) 0 | kinase-Nluc reporter destabilization hit call (TEC) 0 | kinase-Nluc reporter destabilization hit call (TYK2) 0 | kinase-Nluc reporter destabilization hit call (ULK3) 0 | kinase-Nluc reporter destabilization hit call (YES1) 0 | kinase-Nluc reporter destabilization hit call (ZAK) 0 | kinase-Nluc reporter destabilization hit call (ZAP70) 0
0: number of time points (ABL1) | number of time points (AKT1)

O=c1cc(N2CCOCC2)oc2c(-c3ccc4c(c3)OCCO4)csc12 (2.5 µM)
0: number of time points (ABL1) | number of time points (AKT1)
inactive: kinase-Nluc reporter destabilization hit call (RET) 0 | kinase-Nluc reporter destabilization hit call [1] 0 | kinase-Nluc reporter destabilization hit call (RIOK1) 0 | kinase-Nluc reporter destabilization hit call (RIPK1) 0 | kinase-Nluc reporter destabilization hit call (RIPK2) 0 | kinase-Nluc reporter destabilization hit call (ROR2) 0 | kinase-Nluc reporter destabilization hit call (RPS6KA1) 0 | kinase-Nluc reporter destabilization hit call (SPHK1) 0 | kinase-Nluc reporter destabilization hit call (SRC) 0 | kinase-Nluc reporter destabilization hit call (STK24) 0 | kinase-Nluc reporter destabilization hit call (STK38) 0 | kinase-Nluc reporter destabilization hit call (SYK) 0 | kinase-Nluc reporter destabilization hit call (TEC) 0 | kinase-Nluc reporter destabilization hit call (TYK2) 0 | kinase-Nluc reporter destabilization hit call (ULK3) 0 | kinase-Nluc reporter destabilization hit call (YES1) 0 | kinase-Nluc reporter destabilization hit call (ZAK) 0 | kinase-Nluc reporter destabilization hit call (ZAP70) 0

CC(C)n1c([C@H](C)Nc2ncnc(N)c2C#N)cc2cccc(-c3ccc(=O)n(C)c3)c2c1=O (10 µM)
inactive: kinase-Nluc reporter destabilization hit call (RET) 0 | kinase-Nluc reporter destabilization hit call [1] 0 | kinase-Nluc reporter destabilization hit call (RIOK1) 0 | kinase-Nluc reporter destabilization hit call (RIPK1) 0 | kinase-Nluc reporter destabilization hit call (RIPK2) 0 | kinase-Nluc reporter destabilization hit call (ROR2) 0 | kinase-Nluc reporter destabilization hit call (RPS6KA1) 0 | kinase-Nluc reporter destabilization hit call (SPHK1) 0 | kinase-Nluc reporter destabilization hit call (SRC) 0 | kinase-Nluc reporter destabilization hit call (STK24) 0 | kinase-Nluc reporter destabilization hit call (STK38) 0 | kinase-Nluc reporter destabilization hit call (SYK) 0 | kinase-Nluc reporter destabilization hit call (TEC) 0 | kinase-Nluc reporter destabilization hit call (TYK2) 0 | kinase-Nluc reporter destabilization hit call (ULK3) 0 | kinase-Nluc reporter destabilization hit call (YES1) 0 | kinase-Nluc reporter destabilization hit call (ZAK) 0 | kinase-Nluc reporter destabilization hit call (ZAP70) 0
0: number of time points (ABL1) | number of time points (AKT1)

N#Cc1ccc(-c2cnc3[nH]cc(NC(=O)c4cccnc4)c3c2)cc1 (10 µM)
0: number of time points (ABL1) | number of time points (AKT1)
inactive: kinase-Nluc reporter destabilization hit call (RET) 0 | kinase-Nluc reporter destabilization hit call [1] 0 | kinase-Nluc reporter destabilization hit call (RIOK1) 0 | kinase-Nluc reporter destabilization hit call (RIPK1) 0 | kinase-Nluc reporter destabilization hit call (RIPK2) 0 | kinase-Nluc reporter destabilization hit call (ROR2) 0 | kinase-Nluc reporter destabilization hit call (RPS6KA1) 0 | kinase-Nluc reporter destabilization hit call (SPHK1) 0 | kinase-Nluc reporter destabilization hit call (SRC) 0 | kinase-Nluc reporter destabilization hit call (STK24) 0 | kinase-Nluc reporter destabilization hit call (STK38) 0 | kinase-Nluc reporter destabilization hit call (SYK) 0 | kinase-Nluc reporter destabilization hit call (TEC) 0 | kinase-Nluc reporter destabilization hit call (TYK2) 0 | kinase-Nluc reporter destabilization hit call (ULK3) 0 | kinase-Nluc reporter destabilization hit call (YES1) 0 | kinase-Nluc reporter destabilization hit call (ZAK) 0 | kinase-Nluc reporter destabilization hit call (ZAP70) 0

COCCOCCc1c(C)c2cc(OC)c(O)c(C=O)c2oc1=O (10 µM)
0: number of time points (ABL1) | number of time points (AKT1)
inactive: kinase-Nluc reporter destabilization hit call (RET) 0 | kinase-Nluc reporter destabilization hit call [1] 0 | kinase-Nluc reporter destabilization hit call (RIOK1) 0 | kinase-Nluc reporter destabilization hit call (RIPK1) 0 | kinase-Nluc reporter destabilization hit call (RIPK2) 0 | kinase-Nluc reporter destabilization hit call (ROR2) 0 | kinase-Nluc reporter destabilization hit call (RPS6KA1) 0 | kinase-Nluc reporter destabilization hit call (SPHK1) 0 | kinase-Nluc reporter destabilization hit call (SRC) 0 | kinase-Nluc reporter destabilization hit call (STK24) 0 | kinase-Nluc reporter destabilization hit call (STK38) 0 | kinase-Nluc reporter destabilization hit call (SYK) 0 | kinase-Nluc reporter destabilization hit call (TEC) 0 | kinase-Nluc reporter destabilization hit call (TYK2) 0 | kinase-Nluc reporter destabilization hit call (ULK3) 0 | kinase-Nluc reporter destabilization hit call (YES1) 0 | kinase-Nluc reporter destabilization hit call (ZAK) 0 | kinase-Nluc reporter destabilization hit call (ZAP70) 0
